From ChEMBL document CHEMBL3988442, “University of Dundee, Small-Polar-MMV Screening Library” (2021).

Each number is a percent effect as filed.
How 0% and 100% were set is not recorded. Most values in the screen are low, and negative values occur.
The compounds are a random part of those screened.

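Assay of Toxoplasma gondii numbers, read through their beta-galactosidase reporter with a colour substrate. Compounds at 50 µM. The record gives no direction; the compounds picked for IC50 retests had high values, so higher reads as fewer parasites. Size under these conditions: about 18,000 compounds, about 170 of them at 50% or above in at least one test.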

structure,effect
COC(=O)C(C)SCc1ccc(-n2ccnc2)nc1 (configuration not stated),8.768%
CCN1CCC(CC(=O)N(C)Cc2noc(C)n2)CC1,-16.66%
COC(=O)c1cnc(CO)cn1,-14.11%
COC(CO)Cc1ccccc1 (configuration not stated),8.178%
Cc1ccnc(NC(=O)CC(C)n2nc(C)nc2C)c1 (configuration not stated),-2.985%
COC(=O)c1cn(CC(=O)Nc2cccc(F)c2)nn1,-28.09%
N#Cc1cccc(CN)c1F,2.806%
O=C(COC(=O)CCC(=O)c1cccs1)NC1CC1,-21.3%
CCNC1CCOC(C)(C)C1 (configuration not stated),-13.35%
CN1CCc2nc(NC(=O)CC(C)(C)C)sc2C1,-18.33%
CC(O)CN(C(=O)NCCCn1ccnc1)C(C)C (configuration not stated),-0.08255%
Cc1nnc(CN(C)C(=O)CSCC2CC2)o1,-16.96%
CCC(NC(=O)CCCN1CCCC1)c1cnn(C)c1 (configuration not stated),-25.09%
O=C(NCc1ccc2c(c1)OCCCO2)c1cscn1,19.95%
CC1(COC(=O)c2cccnc2)CCCO1 (configuration not stated),1.844%
CC(=O)C1CN(C(=O)OC(C)(C)C)CCO1 (configuration not stated),-6.486%
COCc1ccc(C#N)cc1,-13.73%
NCc1cc(Oc2ccc(Cl)cc2)ccn1,-11.95%
CCN(CC)C(=O)CN1CCCC(C)C1 (configuration not stated),2.84%
O=C(CCNCCO)c1ccccc1,-5.351%
COCc1nc2ccccc2n1CC(=O)NCC(C)C,0.3391%
Cc1cc(O)nc(C2CC2)n1,3.236%
COCCn1ccnc1C1CCCN(C(=O)CSC)C1 (configuration not stated),6.713%
CC(O)(CC#N)c1ccccc1 (configuration not stated),7.334%
NC1CCN(C(=O)C2CCCC2)C1 (configuration not stated),2.86%
CNCC1CCCN(CCCn2ccnc2C)C1 (configuration not stated),-17.97%
CC(=O)NC(C)c1nnc2ccccn12 (configuration not stated),-7.679%
Cc1cc(NC(=O)CNC(=O)c2ccccc2Br)no1,-9.422%
CCN1CCCC1CNC(=O)C(C)(C)C (configuration not stated),3.969%
Cc1n[nH]cc1CNCCNC(=O)c1cccs1,4.098%
Cn1cc(NC(=O)C(C)(C)C)cc(Br)c1=O,-1.471%
Cc1ncccc1C(=O)NCCc1ccnn1C,2.929%
CC(=O)NC(C)C(=O)N1CCCC2(CC2)C1 (configuration not stated),-6.838%
CCc1ccc(C(=O)NCCCN2CCCC2=O)s1,-6.03%
CCS(=O)(=O)N(CCc1cccs1)CC(=O)NC,65.25%
NC1CCN(CC(=O)N2CCCC2)CC1,4.901%
CNC1(CO)Cc2ccccc2C1,21.61%
CSCC(CCO)NC(=O)Nc1cccc(F)c1 (configuration not stated),-3.551%
Nc1noc(CCNC(=O)c2ccc(Cl)cn2)n1,4.213%
CCN(CC)CC(O)COc1ccc(OC)cc1 (configuration not stated),-3.24%
COc1cc(N2CCNCC2)cc(OC)c1OC,-1.353%
CCC(=O)N1CCC(CC(=O)N2CCOCC2)C1 (configuration not stated),-6.194%
CN1CCC(NCCN(C)S(C)(=O)=O)CC1,-0.7404%
O=C1CC(COC(=O)c2ncccc2C(F)(F)F)CN1 (configuration not stated),4.572%
COCC(C)NC(=O)c1cc(S(C)(=O)=O)ccc1Cl (configuration not stated),10.84%
CCn1cc(CNC(=O)c2cccnc2SC)c(C)n1,-14.27%
Clc1ccc2nnc(C3CCCO3)n2n1 (configuration not stated),-7.365%
CC(C)NC(=O)N1CCNCC1,7.229%
NC1COCc2ccccc21 (configuration not stated),27.5%
CCN1CCCC1CNC(=O)CN(C)S(C)(=O)=O (configuration not stated),-8.865%
CC(C#N)N1CCC(CNS(C)(=O)=O)CC1 (configuration not stated),-6.823%
COc1ccc(Cl)cc1NC(=O)CN(C)CC(N)=O,-0.1254%
CN1CCN(Cc2ccncc2)C2(CCCCC2)C1,15.73%
COc1ccc(NC(=O)c2cncc(C)c2)cc1CO,-7.73%
Cc1cccc(N2CCCC(N)C2)n1 (configuration not stated),9.194%
NC(=O)C1(c2ccccc2F)CCCC1,0.7571%
Cc1cc(C(=O)N2CCN(CC(C)O)CC2)on1 (configuration not stated),3.677%
CN(c1ccc(C(=O)N2CCCCC2)cc1)S(C)(=O)=O,7.588%

Once more, the final 5:

| structure | effect |
|---|---|
| `COc1ccc(NC(=O)c2cncc(C)c2)cc1CO` | -7.73% |
| `Cc1cccc(N2CCCC(N)C2)n1` (configuration not stated) | 9.194% |
| `NC(=O)C1(c2ccccc2F)CCCC1` | 0.7571% |
| `Cc1cc(C(=O)N2CCN(CC(C)O)CC2)on1` (configuration not stated) | 3.677% |
| `CN(c1ccc(C(=O)N2CCCCC2)cc1)S(C)(=O)=O` | 7.588% |